From PMC9885601
Results are given in words; binding and its absence hold for the method and conditions named. Binding seen in cells or lysates may run through a third protein. Some entries that bind do so weakly or less than the wild type.

The chains behind the UniProt entries cited, without tags or fusion partners. Where a name states a change or a piece, a line headed by the entry shows the natural chain unless it says otherwise. Residues count along the entry.
UniProt P05556: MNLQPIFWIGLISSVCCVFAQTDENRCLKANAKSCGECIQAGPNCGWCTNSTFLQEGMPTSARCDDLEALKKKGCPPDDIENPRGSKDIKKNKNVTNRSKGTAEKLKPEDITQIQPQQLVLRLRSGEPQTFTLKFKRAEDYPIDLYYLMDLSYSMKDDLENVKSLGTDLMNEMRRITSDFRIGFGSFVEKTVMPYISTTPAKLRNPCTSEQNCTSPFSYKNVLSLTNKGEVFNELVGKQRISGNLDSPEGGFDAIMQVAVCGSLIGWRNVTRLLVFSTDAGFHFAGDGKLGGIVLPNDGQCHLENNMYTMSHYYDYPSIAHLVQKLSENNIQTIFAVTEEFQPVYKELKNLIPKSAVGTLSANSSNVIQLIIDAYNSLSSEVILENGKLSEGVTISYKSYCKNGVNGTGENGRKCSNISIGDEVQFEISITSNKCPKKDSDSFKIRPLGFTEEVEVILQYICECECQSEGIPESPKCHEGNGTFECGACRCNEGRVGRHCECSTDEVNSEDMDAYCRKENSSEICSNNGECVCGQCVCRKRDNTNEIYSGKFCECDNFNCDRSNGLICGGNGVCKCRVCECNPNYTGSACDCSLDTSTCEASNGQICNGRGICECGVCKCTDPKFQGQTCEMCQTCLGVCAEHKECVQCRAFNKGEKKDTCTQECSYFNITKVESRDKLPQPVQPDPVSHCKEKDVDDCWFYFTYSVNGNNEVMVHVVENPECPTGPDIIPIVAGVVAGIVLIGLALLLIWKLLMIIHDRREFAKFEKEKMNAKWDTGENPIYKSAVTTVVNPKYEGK
UniProt P09055, residues 21-798: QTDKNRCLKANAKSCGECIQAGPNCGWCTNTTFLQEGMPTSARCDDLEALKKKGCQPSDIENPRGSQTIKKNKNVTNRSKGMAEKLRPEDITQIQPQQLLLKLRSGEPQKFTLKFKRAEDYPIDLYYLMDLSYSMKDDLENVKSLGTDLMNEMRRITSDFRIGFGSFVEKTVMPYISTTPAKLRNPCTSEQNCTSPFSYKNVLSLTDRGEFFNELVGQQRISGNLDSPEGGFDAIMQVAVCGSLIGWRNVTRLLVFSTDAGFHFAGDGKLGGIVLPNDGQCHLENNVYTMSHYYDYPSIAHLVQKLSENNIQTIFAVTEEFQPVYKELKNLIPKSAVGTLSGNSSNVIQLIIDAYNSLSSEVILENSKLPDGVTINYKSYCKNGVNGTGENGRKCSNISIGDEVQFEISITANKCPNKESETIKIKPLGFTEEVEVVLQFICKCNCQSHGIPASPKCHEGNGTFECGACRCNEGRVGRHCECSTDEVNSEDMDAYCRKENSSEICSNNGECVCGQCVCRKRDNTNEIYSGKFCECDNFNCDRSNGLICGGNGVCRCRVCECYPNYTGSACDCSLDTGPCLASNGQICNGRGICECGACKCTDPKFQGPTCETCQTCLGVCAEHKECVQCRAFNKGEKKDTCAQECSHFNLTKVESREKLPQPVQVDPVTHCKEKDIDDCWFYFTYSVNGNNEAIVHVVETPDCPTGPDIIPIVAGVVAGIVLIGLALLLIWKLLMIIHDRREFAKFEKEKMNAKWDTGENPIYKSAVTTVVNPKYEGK
UniProt P19838: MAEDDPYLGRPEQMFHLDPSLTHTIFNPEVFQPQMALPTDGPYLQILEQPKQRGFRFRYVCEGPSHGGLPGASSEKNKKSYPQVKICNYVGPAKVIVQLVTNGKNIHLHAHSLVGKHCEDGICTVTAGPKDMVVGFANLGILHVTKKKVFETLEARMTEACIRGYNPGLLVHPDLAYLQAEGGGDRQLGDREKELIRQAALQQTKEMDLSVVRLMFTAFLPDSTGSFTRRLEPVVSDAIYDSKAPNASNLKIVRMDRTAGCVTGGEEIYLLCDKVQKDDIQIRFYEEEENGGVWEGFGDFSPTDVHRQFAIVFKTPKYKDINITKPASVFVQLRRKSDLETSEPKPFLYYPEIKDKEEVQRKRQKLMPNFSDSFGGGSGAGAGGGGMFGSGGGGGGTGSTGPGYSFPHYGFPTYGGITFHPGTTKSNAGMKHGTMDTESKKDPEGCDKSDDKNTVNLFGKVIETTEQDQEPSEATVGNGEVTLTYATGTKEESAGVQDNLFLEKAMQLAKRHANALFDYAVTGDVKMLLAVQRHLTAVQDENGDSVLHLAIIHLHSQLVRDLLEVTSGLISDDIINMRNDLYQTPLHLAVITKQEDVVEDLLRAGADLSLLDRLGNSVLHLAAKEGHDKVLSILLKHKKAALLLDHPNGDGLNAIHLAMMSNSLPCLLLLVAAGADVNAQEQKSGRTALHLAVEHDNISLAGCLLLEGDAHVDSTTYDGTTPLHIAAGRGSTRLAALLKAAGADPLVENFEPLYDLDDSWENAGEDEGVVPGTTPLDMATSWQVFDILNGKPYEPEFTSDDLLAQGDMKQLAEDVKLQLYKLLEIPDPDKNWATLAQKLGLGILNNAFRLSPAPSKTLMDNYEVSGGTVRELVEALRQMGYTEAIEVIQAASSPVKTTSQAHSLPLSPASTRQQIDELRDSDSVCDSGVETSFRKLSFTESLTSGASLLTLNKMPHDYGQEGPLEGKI
UniProt P25799: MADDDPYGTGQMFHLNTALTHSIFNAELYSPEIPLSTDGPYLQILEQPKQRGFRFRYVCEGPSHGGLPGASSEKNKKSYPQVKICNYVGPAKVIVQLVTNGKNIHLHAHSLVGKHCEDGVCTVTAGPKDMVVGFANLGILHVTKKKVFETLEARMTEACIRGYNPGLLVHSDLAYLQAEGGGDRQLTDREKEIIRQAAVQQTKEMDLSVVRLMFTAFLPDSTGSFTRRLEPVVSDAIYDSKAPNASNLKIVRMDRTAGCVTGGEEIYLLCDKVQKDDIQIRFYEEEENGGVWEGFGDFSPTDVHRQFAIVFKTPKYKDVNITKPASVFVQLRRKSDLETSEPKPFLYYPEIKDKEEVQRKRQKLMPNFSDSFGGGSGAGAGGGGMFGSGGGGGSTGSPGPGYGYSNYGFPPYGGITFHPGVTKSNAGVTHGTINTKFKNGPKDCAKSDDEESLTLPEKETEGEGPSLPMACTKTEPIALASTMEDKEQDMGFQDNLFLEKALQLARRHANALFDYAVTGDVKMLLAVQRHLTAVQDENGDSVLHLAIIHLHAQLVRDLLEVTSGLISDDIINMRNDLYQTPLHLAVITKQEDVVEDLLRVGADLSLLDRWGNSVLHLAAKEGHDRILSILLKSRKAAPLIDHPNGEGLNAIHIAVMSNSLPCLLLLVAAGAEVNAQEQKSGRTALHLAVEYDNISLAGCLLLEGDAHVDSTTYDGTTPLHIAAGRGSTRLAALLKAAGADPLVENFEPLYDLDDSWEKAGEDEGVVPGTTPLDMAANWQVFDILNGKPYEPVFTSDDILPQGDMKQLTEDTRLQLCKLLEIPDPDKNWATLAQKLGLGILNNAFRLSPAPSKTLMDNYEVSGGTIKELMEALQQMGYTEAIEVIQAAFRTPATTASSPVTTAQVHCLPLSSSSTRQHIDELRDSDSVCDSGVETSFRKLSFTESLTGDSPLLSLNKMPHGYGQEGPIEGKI

Tests used:
[1] = biological target: Flag-tagged integrin β1 (UniProt P05556); test: co-IP; HEK293 cells cotransfected for 24 h with Flag-integrin β1 and His-NF-κB p105 or His-NF-κB p55; RIPA lysate, Protein A-agarose, overnight at 4 °C
[2] = biological target: integrin β1 (mouse (endogenous in liver tissue and primary hepatocytes)) (UniProt P09055); test: co-IP; mouse liver tissue lysed in RIPA buffer; 500 µg sample with 2 µg anti-integrin β1 antibody and Protein A-agarose overnight at 4 °C; blot with an NF-κB p105 antibody that binds the C-terminus; livers of wild-type, Sema7a^R145W homozygous and DEN/CCl4 hepatocellular carcinoma mice

Row | binding [1] | binding [2] | Substance
1 | binds |  | His-tagged NF-κB p105 (from UniProt P19838 1-968)
2 |  | no binding | NF-κB p50 (from UniProt P25799 1-431)
3 |  | binds | nuclear factor NF-kappa-B p105 (from UniProt P25799-1 1-971)
